Reference: patent US20090203538A1
No constants are given. Whether binding was seen depends on the method and setting. Some results given as binding are weak or reduced against the parent protein; the word gives no strength.

Chains of the proteins cited; added tags and fusions are not shown. Lines headed by an entry give the natural chain unless they say otherwise; changes in a name come on top.
UniProt P26006: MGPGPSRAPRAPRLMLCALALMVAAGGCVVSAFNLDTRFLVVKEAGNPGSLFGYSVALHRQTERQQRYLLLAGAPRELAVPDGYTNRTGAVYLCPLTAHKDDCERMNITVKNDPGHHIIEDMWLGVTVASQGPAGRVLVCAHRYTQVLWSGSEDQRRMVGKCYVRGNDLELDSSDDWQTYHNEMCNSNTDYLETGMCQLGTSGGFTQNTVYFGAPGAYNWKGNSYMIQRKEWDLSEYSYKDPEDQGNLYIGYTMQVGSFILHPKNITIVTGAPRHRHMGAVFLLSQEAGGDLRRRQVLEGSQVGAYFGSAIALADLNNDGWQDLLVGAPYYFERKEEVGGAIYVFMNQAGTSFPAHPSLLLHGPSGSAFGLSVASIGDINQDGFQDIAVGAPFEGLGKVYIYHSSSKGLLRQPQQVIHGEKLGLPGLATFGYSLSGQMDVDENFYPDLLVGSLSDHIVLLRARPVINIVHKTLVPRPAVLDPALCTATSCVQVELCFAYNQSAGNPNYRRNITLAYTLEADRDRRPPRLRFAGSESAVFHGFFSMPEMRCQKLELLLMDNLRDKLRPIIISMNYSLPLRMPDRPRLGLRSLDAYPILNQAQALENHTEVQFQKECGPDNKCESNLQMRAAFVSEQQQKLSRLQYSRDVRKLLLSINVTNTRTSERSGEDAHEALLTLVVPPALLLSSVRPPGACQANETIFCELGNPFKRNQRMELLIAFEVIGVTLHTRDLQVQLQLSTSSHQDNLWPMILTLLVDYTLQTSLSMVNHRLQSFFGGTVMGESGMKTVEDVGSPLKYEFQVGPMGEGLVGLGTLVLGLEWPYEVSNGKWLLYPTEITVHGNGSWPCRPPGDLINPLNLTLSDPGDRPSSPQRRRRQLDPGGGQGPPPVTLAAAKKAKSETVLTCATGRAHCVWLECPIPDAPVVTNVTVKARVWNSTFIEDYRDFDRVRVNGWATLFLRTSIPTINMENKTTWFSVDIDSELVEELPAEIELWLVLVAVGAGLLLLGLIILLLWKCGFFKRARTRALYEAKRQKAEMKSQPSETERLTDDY

Columns and labels:
[1] = target: ITGA3 (integrin alpha 3) (Homo sapiens (Human)) (UniProt P26006); test: flow cytometry on SKOv-3 cells with ITGA3 or ITGB1 RNAi, cp3 type antibody; peak pattern like that of an anti-ITGA3 antibody
[2] = target: ITGA3 (integrin alpha 3) (Homo sapiens (Human)) (UniProt P26006); test: antigen assigned by the filing's classifying and identification method; details for this clone not given

binding [1]	binding [2]	Binder
binds	binds	064-093 antibody (antibody, V domains shown) VH: QVQLVQSGAEVKKPGASVKVSCKASGYTFTNYGLTWVRQAPGQGLEWMGWISTYNSNTNYAEKLQGRVTMTTDTSTSTAYMELRSLTSDDTAVYYCARGPTYSFDSSGYFFDYWGQGTLVTVSR VL: SSELTQDPAVSVALGQTVRITCQGDSLRSYYASWYQQKPGQAPVLVIYGKNNRPSGIPDRFSGSSSGNTASLTITGAQAEDEADYYCNSRDSSGNHWVFGGGTKLTVLG
binds	binds	064-085 antibody (antibody, V domains shown) VH: QVQLVQSGAEVKKPGASVKVSCKASGYTFTSYGISWVRQAPGQGLEWMGWISAYNGNTNYAQKLQGRVTMTTDTSTSTAYMELRSLRSDDTAVYYCARDRYYGSGFGMDVWGQGTMVTVSR VL: SSELTQDPAMSVALGQTVKITCQGDSLTNYYPSWYQQKPGQAPVLVMYGKDSRPSGISDRFSGSSSGISASLTITGAQAEDEADYYCNSRDGSAHRLVFGGGTKLTVLG
binds	binds	064-002 antibody (antibody, V domains shown) VH: QVQLQESGPGLVKPSETLSLTCTVSGGSISSYYWSWIRQPAGKGLEWIGRIYTSGSTNYNPSLKSRVTMSVDTSKNQFSLKLSSVTAADTAVYYCARERAYCSSTSCYRNAFDIWGQGTTVTVSR VL: QSVLTQPPSVSGAPGQRVNISCAGSSSNIGAGYDVHWYQQIPGTAPKLLMYGNSNRPSGVPDRFSGSKSGASASLAITRLQAEDEADYYCQSYDSSLSGSRVFGTGTKVTVLG
binds	binds	064-116 antibody (antibody, V domains shown) VH: QVQLVQSGAEVKKPGASVKVSCKASGYTFTSYGISWVRQAPGQGLEWMGWISAYNGNTNYAQKLQGRVTMTTDTSTSTAYMELRSLRSDDTAVYYCARDTYSSGWYFDYWGQGTLVTVSR VL: SSELTQDPAVSVALGQTVRITCQGDSLRNYYASWYQQKPGQAPVLVIYGKNNRPSGIPDRFSGSSSGNTASLTITGAQAEDEADYYCNSRDSSGNHLYVFGTGTKVTVLG
binds	binds	068-007 antibody (antibody, V domains shown) VH: EVQLVESGAEVKKPGASVKVSCKASGYTFTSYGISWVRQAPGQGLEWMGWISAYNGNTNYAQKLQGRVTMTTDTSTSTAYMELRSLRSDDTAVYYCAREKYSSGWYFDYWGQGTLVTVSR VL: SSELTQDPAVSVALGQTVRITCQGDSLRSYYASWYQQKPGQAPVLVIYGKNNRPSGIPDRFSGSSSGNTASLTITGAQAEDEADYYCNSRDSSGNHHYVFGTGTKVTVLG
binds	–	015-003 antibody (antibody, V domains shown) VH: QVQLVQSGAEVKKPGASVKVSCKASGYTFTSYGISWVRQAPGQGLEWMGWISAYNGNTNYAQKLQGRVTMTTDTSTSTAYMELRSLRSDDTAVYYCATAASLKYYYDSSGYYYWGQGTLVTVSR VL: SSELTQDPAVSVALGQTVRITCQGDSLRSYYASWYQQKPGQAPVLVISGKNNRPSGIPDRFSGSSSGDTASLTITGAQAEDEANYYCNSRDSSGYPSWVFGGGTKLTVLG
